# Article PMC3262814, “Purification and Activity Testing of the Full-Length YycFGHI Proteins of Staphylococcus aureus” (PLoS ONE, 2012)
# These are yes or no findings as the source states them, for the method shown.
# Target: YycF-C-His6 (Staphylococcus aureus SA137/93A) (UniProt Q2G2U6)
# Assay: native gel or EMSA; blue native PAGE (BN-PAGE) of single proteins; 4-20% Tris-HCl gradient gel; 5 µg of YycF, YycH, YycI or 10 µg of YycG, YycG(Y306N) in 10 µl dialysis buffer I (50 mM NaH2PO4, 300 mM NaCl, 50% glycerol, pH 8) with Coomassie Brilliant Blue R250; 80 V, 4-7°C; masses calibrated with soluble markers and a conversion factor; both purified
substance,measurement,value
YycF-C-His6 (from UniProt Q2G2U6 1-233),binding,no binding (tested: 5 µg in 10 µl)
